From paper PMC8481818
Results are given in words; binding and its absence hold for the method and conditions named. Binding seen in cells or lysates may run through a third protein. Binding calls can cover weak binding; strength is not graded here.

Legend:
[1] = molecular target: T1, E3 ubiquitin ligase MARCH1 (human (endogenous in HepG2)) (UniProt Q8TCQ1); assay: co-IP; HepG2 cells lysed by RIPA; lysates incubated with anti-USP4 or anti-MARCH1 antibody and Protein A agarose beads; insulin receptor in the precipitate detected by Western blot; cells treated as control, Dex, or Dex + gastrodin 100 uM, all with MG132
T1 sequence: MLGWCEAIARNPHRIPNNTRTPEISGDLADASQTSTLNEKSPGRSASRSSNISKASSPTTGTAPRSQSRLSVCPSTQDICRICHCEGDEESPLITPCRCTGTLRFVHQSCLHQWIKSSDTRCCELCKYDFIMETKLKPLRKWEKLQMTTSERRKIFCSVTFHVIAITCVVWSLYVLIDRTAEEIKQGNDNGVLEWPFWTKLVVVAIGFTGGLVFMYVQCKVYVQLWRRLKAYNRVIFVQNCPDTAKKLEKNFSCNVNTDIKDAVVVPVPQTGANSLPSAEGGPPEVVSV

[2] = molecular target: T2, ubiquitin-specific protease 4 (human (endogenous in HepG2)) (UniProt Q13107); assay: as above
T2 sequence: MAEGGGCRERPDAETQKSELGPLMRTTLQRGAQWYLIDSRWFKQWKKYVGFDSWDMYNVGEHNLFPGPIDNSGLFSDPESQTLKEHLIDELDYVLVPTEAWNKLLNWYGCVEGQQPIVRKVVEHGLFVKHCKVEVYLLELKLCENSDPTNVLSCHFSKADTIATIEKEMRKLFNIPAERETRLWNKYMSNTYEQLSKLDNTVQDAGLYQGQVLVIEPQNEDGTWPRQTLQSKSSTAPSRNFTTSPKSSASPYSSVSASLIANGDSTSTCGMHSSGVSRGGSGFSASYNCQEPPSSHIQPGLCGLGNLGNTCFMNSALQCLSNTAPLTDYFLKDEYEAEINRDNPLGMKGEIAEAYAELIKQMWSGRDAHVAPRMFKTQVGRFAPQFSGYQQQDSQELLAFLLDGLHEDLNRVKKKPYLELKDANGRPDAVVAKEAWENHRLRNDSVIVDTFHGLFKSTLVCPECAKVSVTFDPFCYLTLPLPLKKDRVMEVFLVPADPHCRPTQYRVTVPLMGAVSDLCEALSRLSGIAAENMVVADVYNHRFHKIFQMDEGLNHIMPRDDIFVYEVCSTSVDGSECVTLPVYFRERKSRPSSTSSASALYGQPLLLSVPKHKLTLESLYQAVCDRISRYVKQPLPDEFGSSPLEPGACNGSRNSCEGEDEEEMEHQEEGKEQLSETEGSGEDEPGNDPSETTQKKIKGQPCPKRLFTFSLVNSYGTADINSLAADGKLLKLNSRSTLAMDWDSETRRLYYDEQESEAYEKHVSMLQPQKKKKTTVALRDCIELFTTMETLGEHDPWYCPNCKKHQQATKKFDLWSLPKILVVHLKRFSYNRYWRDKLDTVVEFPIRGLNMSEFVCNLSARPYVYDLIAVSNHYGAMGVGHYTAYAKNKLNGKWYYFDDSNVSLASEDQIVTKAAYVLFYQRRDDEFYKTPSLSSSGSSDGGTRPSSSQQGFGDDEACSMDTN

## insulin receptor (human (endogenous in HepG2))
[1]
  binding: binds
[2]
  binding: binds
